These results are taken from PMC6449396.

In assay [1] the target is T1, MBP-Mad1 (full length) (human) (UniProt Q9Y6D9).
T1 sequence: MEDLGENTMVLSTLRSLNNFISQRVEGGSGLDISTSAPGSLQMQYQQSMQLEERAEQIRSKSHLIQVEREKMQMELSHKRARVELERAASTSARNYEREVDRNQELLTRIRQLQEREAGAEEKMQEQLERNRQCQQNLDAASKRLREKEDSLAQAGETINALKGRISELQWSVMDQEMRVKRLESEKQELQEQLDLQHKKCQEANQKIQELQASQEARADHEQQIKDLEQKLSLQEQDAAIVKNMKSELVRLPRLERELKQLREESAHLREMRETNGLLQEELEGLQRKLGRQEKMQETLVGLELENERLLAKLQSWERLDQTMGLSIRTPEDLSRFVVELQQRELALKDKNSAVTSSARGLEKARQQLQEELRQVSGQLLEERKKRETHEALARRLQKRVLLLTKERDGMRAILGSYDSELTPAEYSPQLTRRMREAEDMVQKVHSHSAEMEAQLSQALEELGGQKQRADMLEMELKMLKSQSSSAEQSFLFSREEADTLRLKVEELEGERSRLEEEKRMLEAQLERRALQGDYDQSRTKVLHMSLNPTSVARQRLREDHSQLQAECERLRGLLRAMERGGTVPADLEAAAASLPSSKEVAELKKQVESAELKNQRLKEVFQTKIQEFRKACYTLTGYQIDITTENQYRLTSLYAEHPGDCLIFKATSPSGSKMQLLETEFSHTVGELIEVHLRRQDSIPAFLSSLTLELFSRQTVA
Kind of assay: pull-down; MBP constructs and PML constructs co-expressed in BL21 E. coli; lysate (50 mM HEPES pH 7.6, 100 mM NaCl, 1 mM DTT) treated with SUMO protease overnight at 4 °C, amylose resin 1 h at 4 °C, eluted with 10 mM maltose, immunoblot. (In general: Immunoblotting shows a protein as a band on a membrane.)

The target of assay [2] is T2, MBP-Mad1(CTD) (human) (UniProt Q9Y6D9).
T2 sequence: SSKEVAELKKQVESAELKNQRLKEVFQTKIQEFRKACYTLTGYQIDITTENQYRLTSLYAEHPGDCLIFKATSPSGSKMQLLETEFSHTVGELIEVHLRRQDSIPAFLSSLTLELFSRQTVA
The description is as above.

No constants are given. Whether binding was seen depends on the method and setting. In cells and extracts the contact can be indirect. A result given as binding can be weak or reduced; the word gives no strength. Where a sequence is shown, tags or fusion partners need not be part of it.

On to “recombinant PML (from Smt3p-PML) (from UniProt P29590-5)”, for which the binding entry in assay [1] and in assay [2] was “binds” in each case.
